# Assay results: publication PMC12040169 (PLOS Biology, 2025)
# This is one part of the list.
# Tested on: T1, CTL2-GFP (C. trachomatis L2/434/Bu, GFP-expressing)
# T1 construct: L2/434/Bu, GFP-expressing
# Design: species or system HeLa; Intracellular C. trachomatis growth in HeLa cells, bulk GFP fluorescence relative to DMSO
# Conditions: bulk GFP, single well; 28.5 h, 10 µM; inhibitor
row,Compound,% of control remaining
1,O=C(O)c1ccc(OC(=O)C2CCCC2)cc1 [CBK090156],115.688%
2,CSCCC(=O)N1CCC2(CCN(C(=O)c3cc(F)c(F)cc3F)C2)C1 (stereo not drawn) [CBK131397],109.253%
3,Cc1cc(C)[n+]2c(n1)N(c1ccccc1)CC2 [CBK017327G],126.087%
4,O=C(Cn1c(NCCO)nc2ccccc21)C12CC3CC(CC(C3)C1)C2 [CBK262129B],100%
5,Cc1cccc(NC(=O)CSCc2ccc(Cl)s2)n1 [CBK297895],112.431%
6,COc1ccc(-c2nc(NC(=O)c3ccco3)cnc2-c2cccc(C)c2)cn1 [CBK036954],125.942%
7,CCOc1ccccc1C(=O)N1CCCCC1c1ncc(C(=O)Nc2ccccc2)c(C)n1 (stereo not drawn) [CBK285840],118.253%
8,CCCCNC(=O)CCCN(CC)CCC1=CC2(CCCC2)c2ccccc21 [CBK013232],148.042%
9,C[C@H](NC(=O)N1CCC2(CC1)NCCc1c2[nH]c2ccc(Cl)cc12)c1ccccc1 [CBK047046],68.9274%
10,O=C(NCc1csc(-c2ccccc2)n1)c1ccccc1OC(F)F [CBK092332],113.114%
11,Nc1nnc(SCc2ccc(Br)cc2)s1 [CBK026356],121.624%
12,Cc1ccn(CCNC(=O)c2ccc3c(C)c(C)[nH]c3c2)n1 [CBK282519],175.242%
13,O=C(Nc1ncc(Cc2ccc(F)cc2)s1)c1ccc(-c2ccc(F)cc2)o1 [CBK300522],117.468%
14,Cc1sc2nc(SCC(=O)Nc3ccc(S(N)(=O)=O)cc3)n(-c3ccccc3)c(=O)c2c1C [CBK266600],114.269%
15,CN(CCc1ccccn1)Cc1cc(Br)cs1 [CBK021314],133.959%
16,FCCOc1cncc(Cl)n1 [CBK113553],104.329%
17,COc1cc(C)c(NC(=O)C(=S)NCc2ccco2)cc1C [CBK268582],135.029%
18,COc1cc(-c2cn3ccnc3c(N[C@@H]3CCN(Cc4ccccc4)C3)n2)cc(OC)c1OC [CBK037385],139.436%
19,N#Cc1ccccc1-c1ccc(CSc2cccs2)cc1 [CBK002638],95.5815%
20,COc1cccc(N2CC(C(=O)Nc3cccc(C(=O)O)c3)CC2=O)c1 (stereo not drawn) [CBK286612],136.148%
21,c1nc(OCCN2CCOCC2)cc(N2CCCN(CCN3CCOCC3)CC2)n1 [CBK083647],133.239%
22,COc1c(C)cc(-c2nc(C)nc(C)c2C)cc1C [CBK307506],129.001%
23,O=C(O)CCC(=O)N1N=C2C(=Cc3cccc([N+](=O)[O-])c3)CCCC2C1c1cccc([N+](=O)[O-])c1 (stereo not drawn) [CBK296071],96.0527%
24,CCCCOc1ccc(C(=O)N/C(=C/c2ccco2)C(=O)Nc2cccc(C(=O)O)c2)cc1 [CBK300491],141.746%
25,CC(=O)NCCSc1ncccc1C(F)(F)F [CBK105296],131.283%
26,O=C(NCCN1CCCCC1)C1CC(=O)N(CCc2ccccc2)C1 (stereo not drawn) [CBK305986],87.0591%

row,Compound,% of control remaining
1,O=C(COc1ccc(F)cc1F)NNC(=S)NC1CCCCC1 [CBK266859],116.733%
2,Clc1ccccc1-c1nccnc1NCCc1c[nH]c2ccccc12 [CBK037337],98.5784%
3,COC(=O)c1ccc(N2C(=O)CC(N3CCC(n4c(=O)[nH]c5ccccc54)CC3)C2=O)cc1 (stereo not drawn) [CBK268714],137.757%
4,COc1ccccc1N1CCN(C(=O)N(CCN)CCC(C)c2ccccc2)CC1 (stereo not drawn) [CBK002137C],127.581%
5,CNC(=O)C1(Cc2cccc(-c3cccs3)c2)CCN(C(=O)c2ccccc2)CC1 [CBK285720],113.386%
6,Cc1ncccc1-c1cc2cccnc2n1CCCNC(=O)C1CC1C (stereo not drawn) [CBK282688],118.001%
7,Cc1ccc2[nH]c(-c3cccc(NC(=O)c4ccc(-n5cnnc5)cc4)c3)nc2c1 [CBK285839],115.656%
8,Cc1ccc(Nc2nc(N)nc(-c3cc4ccccc4o3)n2)cc1 [CBK288222],83.8358%
9,O=C1CC[C@@H](NCc2cccnc2)[C@H](c2cc(F)cc(F)c2)N1 [CBK283130],133.715%
10,O=C(O)c1ccccc1C(=O)N1CCC2(CC1)OCCc1c2[nH]c2ccccc12 [CBK046981],110.323%
11,CCCCC(=O)N(C)c1c(C)nc2ccc(C(=O)NCc3cccs3)cn12 [CBK147073],109.992%
12,O=C(O)C(Nc1nc(C(F)(F)F)nc2ccccc12)c1ccccc1 (stereo not drawn) [CBK269570],76.251%
13,Cc1[nH]n(-c2nc3ccccc3o2)c(=O)c1Cc1c(Cl)cccc1Cl [CBK085382],62.6591%
14,COC(=O)c1sccc1NS(=O)(=O)c1cc(F)c(Br)cc1F [CBK004492],100.606%
15,Nc1nc2ccccc2n1CCOc1ccc(Cl)cc1 [CBK087352],156.325%
16,O=C(COc1ccc(S(=O)(=O)N2CCCCC2)cc1)NCc1cccnc1 [CBK268328],144.762%
17,Cc1c(Cl)cccc1NC(=O)C(=O)NCCCN1CCOCC1 [CBK263276],91.2014%
18,S=C(NCc1ccc(Cl)c(Cl)c1)Nc1ccncc1 [CBK016649],124.579%
19,NC(CSC12CC3CC(CC(C3)C1)C2)C(=O)O (stereo not drawn) [CBK287219],115.749%
20,Cc1cc(C)n(-c2cc(C)c3ccccc3n2)n1 [CBK262358],148.41%
21,c1ccc2c(c1)CCCN2Cc1nc2ccccc2[nH]1 [CBK138329],135.034%
22,Cc1ccc(S(N)(=O)=O)cc1CNC(=O)Nc1cccc(F)c1 [CBK093516],132.829%
23,COCCNC(=O)c1cc(C2CN(CCc3ccccc3)CCO2)nc2ccccc12 (stereo not drawn) [CBK285622],119.19%
24,O=C(COC(=O)c1cc(-c2ccco2)nc2ccccc12)Nc1ccc(F)c(F)c1F [CBK296115],122.701%
25,CCOC(=O)CC(=O)Nc1c(Br)cc(Br)cc1C(=O)O [CBK261412],89.1358%

# Compounds shown so far containing a CF3 group:
row,Compound,% of control remaining
25,CC(=O)NCCSc1ncccc1C(F)(F)F [CBK105296],131.283%
12,O=C(O)C(Nc1nc(C(F)(F)F)nc2ccccc12)c1ccccc1 (stereo not drawn) [CBK269570],76.251%
